# Results from patent US20240101675A1 (BIOLOJIC DESIGN, published 2024).
# By UniProt entry, the sequences of proteins in these tests, tags left out. Residues count along the entry.
# UniProt Q969D9, residues 29-159: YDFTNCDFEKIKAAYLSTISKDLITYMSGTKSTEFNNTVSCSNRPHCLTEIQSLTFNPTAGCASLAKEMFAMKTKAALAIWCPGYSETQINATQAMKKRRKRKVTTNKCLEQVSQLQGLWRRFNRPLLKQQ
# These are yes or no findings as the source states them, for the method shown. Some results given as binding are weak or reduced against the parent protein; the word gives no strength. Where a sequence is shown, tags or fusion partners need not be part of it.
# B1: TSLP-R-Fc tag (ACRO biosystems TSR-H525a) (Fc fusion, UniProt Q9HC73 23-231, looked up)
# chain: QGGAAEGVQIQIIYFNLETVQVTWNASKYSRTNLTFHYRFNGDEAYDQCTNYLLQEGHTSGCLLDAEQRDDILYFSIRNGTHPVFTASRWMVYYLKPSSPKHVRFSWHQDAVTVTCSDLSYGDLLYEVQYRSPFDTEWQSKQENTCNVTIEGLDAEKCYSFWVRVKAMEDVYGPDTYPSDWSEVTCWQRGEIRDACAETPTPPKPKLSK
# notes: bought; also called TSLP receptor; not shown: Fc tag
# Molecular target: hTSLP-His (ACRO biosystems cat: TSP-H52Hb) (human) (UniProt Q969D9)
# Experiment: blocking ELISA: competitor mixed with 3 nM hTSLP-His, then on a plate coated with TSLP-R-Fc; bound hTSLP-His by anti-His-HRP
binder,measurement,value
B1,binding,binds
